Data from article PMC10458893, “Design of Protegrin-1 Analogs with Improved Antibacterial Selectivity” (Pharmaceutics, 2023).
Positions of bridges follow the written chain, without caps; N, C: chain ends. Residues, ends and D or L forms follow the SMILES beside them.

Test system: all the test strains
Type: cell-based
Details: 128 μM used for MHC when less than 2% hemolysis at 64 μM
Method: The antimicrobial activity of the peptides was determined using two-fold serial dilutions in sterile 96-well flat-bottom polystyrene microplates (Eppendorf, Hamburg, Germany) (Cat. No. 0030730011), as previously described. The following strains of bacteria were used: E. coli ATCC 25922, E. coli ML35p (ATCC collection), E. coli BW 25113 (Keio collection), Pseudomonas aeruginosa PAO1 (ATCC collection), P. aeruginosa ATCC 27853, Klebsiella pneumoniae ATCC 700603, Staphylococcus aureus 209P (ATCC collection), S. aureus ATCC 29213, and Micrococcus luteus B-1314 (VKM collection). Acinetobacter baumannii (strain XDR CI 2675) was provided by the I.M. Sechenov First Moscow State Medical University hospital. After a 24 h incubation period, the metabolic activity of the bacteria was assessed by adding 20 µL of a redox indicator, resazurin (Sigma-Aldrich, St. Louis, MO, USA), at a concentration of 0.1 mg/mL, to the wells. The plate was then incubated for a further two hours. The minimum inhibitory concentration (MIC) was determined as the lowest concentration of the peptide at which no color change in the resazurin indicator was observed. The results were presented as median values, which were determined based on at least three independent experiments carried out in triplicate.

CC(C)C[C@H](NC(=O)[C@H](CCCNC(=N)N)NC(=O)CNC(=O)CNC(=O)[C@@H](N)CCCNC(=N)N)C(=O)N[C@H]1CSSC[C@@H](C(=O)N[C@H](C(=O)NCC(=O)N[C@@H](CCCNC(=N)N)C(=O)O)C(C)C)NC(=O)[C@H](C(C)C)NC(=O)[C@@H]2CSSC[C@H](NC(=O)[C@H](Cc3ccc(O)cc3)NC1=O)C(=O)N[C@@H](CCCNC(=N)N)C(=O)N[C@@H](CCCNC(=N)N)C(=O)N[C@@H](CCCNC(=N)N)C(=O)N[C@@H](Cc1ccccc1)C(=O)N2 [PG-1, Protegrin-1] (H-RGGRLCYCRRRFCVCVGR-OH; disulfide 6-15, 8-13; N-terminus and C-terminus assumed)
TI, therapeutic index (ratio of the MHC to the MIC (GM)): 1.8

CC(C)[C@H](NC(=O)[C@@H]1CSSC[C@H](NC(=O)[C@H](C)NC(=O)[C@H](CCCNC(=N)N)NC(=O)CNC(=O)CNC(=O)[C@@H](N)CCCNC(=N)N)C(=O)N[C@@H](Cc2ccc(O)cc2)C(=O)N[C@H]2CSSC[C@H](NC(=O)[C@H](Cc3ccccc3)NC(=O)[C@H](CCCNC(=N)N)NC(=O)[C@H](CCCNC(=N)N)NC(=O)[C@H](CCCNC(=N)N)NC2=O)C(=O)N[C@@H](C)C(=O)N1)C(=O)NCC(=O)N[C@@H](CCCNC(=N)N)C(=O)O [[L5A,V14A]] (H-RGGRACYCRRRFCACVGR-OH; disulfide 6-15, 8-13; N-terminus and C-terminus assumed)
TI, therapeutic index (ratio of the MHC to the MIC (GM)): 4.2

CC(C)[C@@H]1NC(=O)[C@@H]2CSSC[C@H](NC(=O)[C@H](Cc3ccc(O)cc3)NC(=O)[C@@H](NC(=O)[C@H](C)NC(=O)[C@H](CCCNC(=N)N)NC(=O)CNC(=O)CNC(=O)[C@@H](N)CCCNC(=N)N)CSSC[C@@H](C(=O)N[C@@H](C)C(=O)NCC(=O)N[C@@H](CCCNC(=N)N)C(=O)O)NC1=O)C(=O)N[C@@H](CCCNC(=N)N)C(=O)N[C@@H](CCCNC(=N)N)C(=O)N[C@@H](CCCNC(=N)N)C(=O)N[C@@H](Cc1ccccc1)C(=O)N2 [[L5A,V16A]] (H-RGGRACYCRRRFCVCAGR-OH; disulfide 6-15, 8-13; N-terminus and C-terminus assumed)
TI, therapeutic index (ratio of the MHC to the MIC (GM)): 2.7

CC(C)[C@@H]1NC(=O)[C@@H]2CSSC[C@H](NC(=O)[C@H](Cc3ccc(O)cc3)NC(=O)[C@@H](NC(=O)[C@H](C)NC(=O)[C@H](CCCNC(=N)N)NC(=O)CNC(=O)CNC(=O)[C@@H](N)CCCNC(=N)N)CSSC[C@@H](C(=O)N[C@@H](CCCNC(=N)N)C(=O)NCC(=O)N[C@@H](CCCNC(=N)N)C(=O)O)NC1=O)C(=O)N[C@@H](CCCNC(=N)N)C(=O)N[C@@H](CCCNC(=N)N)C(=O)N[C@@H](CCCNC(=N)N)C(=O)N[C@@H](Cc1ccccc1)C(=O)N2 [[L5A,V16R]] (H-RGGRACYCRRRFCVCRGR-OH; disulfide 6-15, 8-13; N-terminus and C-terminus assumed)
TI, therapeutic index (ratio of the MHC to the MIC (GM)): 26.0

CC(C)[C@H](NC(=O)[C@@H]1CSSC[C@H](NC(=O)[C@H](C)NC(=O)[C@H](CCCNC(=N)N)NC(=O)CNC(=O)CNC(=O)[C@@H](N)CCCNC(=N)N)C(=O)N[C@@H](Cc2ccc(O)cc2)C(=O)N[C@H]2CSSC[C@H](NC(=O)[C@H](Cc3ccccc3)NC(=O)[C@H](CCCNC(=N)N)NC(=O)[C@H](CCCNC(=N)N)NC(=O)[C@H](CCCNC(=N)N)NC2=O)C(=O)N[C@@H](C(C)C)C(=O)N1)C(=O)NCC(=O)N[C@@H](CCCNC(=N)N)C(=O)O [[L5A]] (H-RGGRACYCRRRFCVCVGR-OH; disulfide 6-15, 8-13; N-terminus and C-terminus assumed)
TI, therapeutic index (ratio of the MHC to the MIC (GM)): 9.4

CC(C)[C@H](NC(=O)[C@@H]1CSSC[C@H](NC(=O)[C@H](CCCNC(=N)N)NC(=O)[C@H](CCCNC(=N)N)NC(=O)CNC(=O)CNC(=O)[C@@H](N)CCCNC(=N)N)C(=O)N[C@@H](Cc2ccc(O)cc2)C(=O)N[C@H]2CSSC[C@H](NC(=O)[C@H](Cc3ccccc3)NC(=O)[C@H](CCCNC(=N)N)NC(=O)[C@H](CCCNC(=N)N)NC(=O)[C@H](CCCNC(=N)N)NC2=O)C(=O)N[C@@H](C(C)C)C(=O)N1)C(=O)NCC(=O)N[C@@H](CCCNC(=N)N)C(=O)O [[L5R]] (H-RGGRRCYCRRRFCVCVGR-OH; disulfide 6-15, 8-13; N-terminus and C-terminus assumed)
TI, therapeutic index (ratio of the MHC to the MIC (GM)): 3.3

CC(C)C[C@H](NC(=O)[C@H](CCCNC(=N)N)NC(=O)CNC(=O)CNC(=O)[C@@H](N)CCCNC(=N)N)C(=O)N[C@H]1CSSC[C@@H](C(=O)N[C@@H](CCCNC(=N)N)C(=O)NCC(=O)N[C@@H](CCCNC(=N)N)C(=O)O)NC(=O)[C@H](C)NC(=O)[C@@H]2CSSC[C@H](NC(=O)[C@H](Cc3ccc(O)cc3)NC1=O)C(=O)N[C@@H](CCCNC(=N)N)C(=O)N[C@@H](CCCNC(=N)N)C(=O)N[C@@H](CCCNC(=N)N)C(=O)N[C@@H](Cc1ccccc1)C(=O)N2 [[V14A,V16R]] (H-RGGRLCYCRRRFCACRGR-OH; disulfide 6-15, 8-13; N-terminus and C-terminus assumed)
TI, therapeutic index (ratio of the MHC to the MIC (GM)): 26.0

CC(C)C[C@H](NC(=O)[C@H](CCCNC(=N)N)NC(=O)CNC(=O)CNC(=O)[C@@H](N)CCCNC(=N)N)C(=O)N[C@H]1CSSC[C@@H](C(=O)N[C@H](C(=O)NCC(=O)N[C@@H](CCCNC(=N)N)C(=O)O)C(C)C)NC(=O)[C@H](C)NC(=O)[C@@H]2CSSC[C@H](NC(=O)[C@H](Cc3ccc(O)cc3)NC1=O)C(=O)N[C@@H](CCCNC(=N)N)C(=O)N[C@@H](CCCNC(=N)N)C(=O)N[C@@H](CCCNC(=N)N)C(=O)N[C@@H](Cc1ccccc1)C(=O)N2 [[V14A]] (H-RGGRLCYCRRRFCACVGR-OH; disulfide 6-15, 8-13; N-terminus and C-terminus assumed)
TI, therapeutic index (ratio of the MHC to the MIC (GM)): 13.5

CC(C)C[C@H](NC(=O)[C@H](CCCNC(=N)N)NC(=O)CNC(=O)CNC(=O)[C@@H](N)CCCNC(=N)N)C(=O)N[C@H]1CSSC[C@@H](C(=O)N[C@H](C(=O)NCC(=O)N[C@@H](CCCNC(=N)N)C(=O)O)C(C)C)NC(=O)[C@H](CCCNC(=N)N)NC(=O)[C@@H]2CSSC[C@H](NC(=O)[C@H](Cc3ccc(O)cc3)NC1=O)C(=O)N[C@@H](CCCNC(=N)N)C(=O)N[C@@H](CCCNC(=N)N)C(=O)N[C@@H](CCCNC(=N)N)C(=O)N[C@@H](Cc1ccccc1)C(=O)N2 [[V14R]] (H-RGGRLCYCRRRFCRCVGR-OH; disulfide 6-15, 8-13; N-terminus and C-terminus assumed)
TI, therapeutic index (ratio of the MHC to the MIC (GM)): 13.0

CC(C)C[C@H](NC(=O)[C@H](CCCNC(=N)N)NC(=O)CNC(=O)CNC(=O)[C@@H](N)CCCNC(=N)N)C(=O)N[C@H]1CSSC[C@@H](C(=O)N[C@@H](C)C(=O)NCC(=O)N[C@@H](CCCNC(=N)N)C(=O)O)NC(=O)[C@H](C(C)C)NC(=O)[C@@H]2CSSC[C@H](NC(=O)[C@H](Cc3ccc(O)cc3)NC1=O)C(=O)N[C@@H](CCCNC(=N)N)C(=O)N[C@@H](CCCNC(=N)N)C(=O)N[C@@H](CCCNC(=N)N)C(=O)N[C@@H](Cc1ccccc1)C(=O)N2 [[V16A]] (H-RGGRLCYCRRRFCVCAGR-OH; disulfide 6-15, 8-13; N-terminus and C-terminus assumed)
TI, therapeutic index (ratio of the MHC to the MIC (GM)): 10.6

CC(C)C[C@H](NC(=O)[C@H](CCCNC(=N)N)NC(=O)CNC(=O)CNC(=O)[C@@H](N)CCCNC(=N)N)C(=O)N[C@H]1CSSC[C@@H](C(=O)N[C@@H](CCCNC(=N)N)C(=O)NCC(=O)N[C@@H](CCCNC(=N)N)C(=O)O)NC(=O)[C@H](C(C)C)NC(=O)[C@@H]2CSSC[C@H](NC(=O)[C@H](Cc3ccc(O)cc3)NC1=O)C(=O)N[C@@H](CCCNC(=N)N)C(=O)N[C@@H](CCCNC(=N)N)C(=O)N[C@@H](CCCNC(=N)N)C(=O)N[C@@H](Cc1ccccc1)C(=O)N2 [[V16R]] (H-RGGRLCYCRRRFCVCRGR-OH; disulfide 6-15, 8-13)
TI, therapeutic index (ratio of the MHC to the MIC (GM)): 60.6

CC(C)C[C@H](NC(=O)[C@H](CCCNC(=N)N)NC(=O)CNC(=O)CNC(=O)[C@@H](N)CCCNC(=N)N)C(=O)N[C@H]1CSSC[C@@H](C(=O)N[C@H](C(=O)NCC(=O)N[C@@H](CCCNC(=N)N)C(=O)O)C(C)C)NC(=O)[C@H](C(C)C)NC(=O)[C@@H]2CSSC[C@H](NC(=O)[C@H](CCCNC(=N)N)NC1=O)C(=O)N[C@@H](CCCNC(=N)N)C(=O)N[C@@H](CCCNC(=N)N)C(=O)N[C@@H](CCCNC(=N)N)C(=O)N[C@@H](Cc1ccccc1)C(=O)N2 [[Y7R]] (H-RGGRLCRCRRRFCVCVGR-OH; disulfide 6-15, 8-13; N-terminus and C-terminus assumed)
TI, therapeutic index (ratio of the MHC to the MIC (GM)): 24.9

CC(C)C[C@H](NC(=O)[C@H](CCCNC(=N)N)NC(=O)CNC(=O)CNC(=O)[C@@H](N)CCCNC(=N)N)C(=O)N[C@H]1CSSC[C@@H](C(=O)N[C@@H](CCCNC(=N)N)C(=O)NCC(=O)N[C@@H](CCCNC(=N)N)C(=O)O)NC(=O)[C@H](C(C)C)NC(=O)[C@@H]2CSSC[C@H](NC(=O)[C@H]([C@@H](C)O)NC1=O)C(=O)N[C@@H](CCCNC(=N)N)C(=O)N[C@@H](CCCNC(=N)N)C(=O)N[C@@H](CCCNC(=N)N)C(=O)N[C@@H](Cc1ccccc1)C(=O)N2 [[Y7T,V16R]] (H-RGGRLCTCRRRFCVCRGR-OH; disulfide 6-15, 8-13; N-terminus and C-terminus assumed)
TI, therapeutic index (ratio of the MHC to the MIC (GM)): 6.1
